Paper PMC4640547
No constants are given. Whether binding was seen depends on the method and setting. Binding seen in cells or lysates may run through a third protein. Some results given as binding are weak or reduced against the parent protein; the word gives no strength. Where a sequence is shown, tags or fusion partners need not be part of it.

Sequences of proteins named here, by UniProt entry; tags and fusion partners are left off. A change or cut given only in a name is not applied to a line headed by its entry. A line that says so, or that is headed by a name, gives the form on record, which may keep a tag or linker.
UniProt P11309: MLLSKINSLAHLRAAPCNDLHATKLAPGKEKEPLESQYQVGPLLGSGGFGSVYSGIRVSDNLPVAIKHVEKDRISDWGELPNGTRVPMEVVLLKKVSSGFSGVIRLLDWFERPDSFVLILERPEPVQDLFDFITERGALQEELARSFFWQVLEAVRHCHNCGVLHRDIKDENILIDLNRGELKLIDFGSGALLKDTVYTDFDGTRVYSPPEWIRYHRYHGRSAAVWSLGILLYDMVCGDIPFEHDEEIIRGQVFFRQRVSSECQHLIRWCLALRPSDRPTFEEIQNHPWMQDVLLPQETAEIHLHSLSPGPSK
APP-tagged PIM-1L (P11309-2, form named): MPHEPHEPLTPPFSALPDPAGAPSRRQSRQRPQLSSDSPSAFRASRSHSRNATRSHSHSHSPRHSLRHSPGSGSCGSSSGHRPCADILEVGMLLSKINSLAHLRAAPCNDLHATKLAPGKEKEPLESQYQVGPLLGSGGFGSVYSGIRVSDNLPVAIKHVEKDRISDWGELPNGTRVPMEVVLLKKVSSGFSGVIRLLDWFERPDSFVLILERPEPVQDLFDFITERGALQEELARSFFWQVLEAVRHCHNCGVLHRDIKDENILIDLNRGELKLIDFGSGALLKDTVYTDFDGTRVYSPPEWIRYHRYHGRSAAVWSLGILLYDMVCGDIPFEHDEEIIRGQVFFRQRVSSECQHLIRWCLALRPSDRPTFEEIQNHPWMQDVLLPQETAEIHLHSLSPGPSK

Target: T1, EGFP-tagged CD180 (human) (UniProt Q99467)
T1 sequence: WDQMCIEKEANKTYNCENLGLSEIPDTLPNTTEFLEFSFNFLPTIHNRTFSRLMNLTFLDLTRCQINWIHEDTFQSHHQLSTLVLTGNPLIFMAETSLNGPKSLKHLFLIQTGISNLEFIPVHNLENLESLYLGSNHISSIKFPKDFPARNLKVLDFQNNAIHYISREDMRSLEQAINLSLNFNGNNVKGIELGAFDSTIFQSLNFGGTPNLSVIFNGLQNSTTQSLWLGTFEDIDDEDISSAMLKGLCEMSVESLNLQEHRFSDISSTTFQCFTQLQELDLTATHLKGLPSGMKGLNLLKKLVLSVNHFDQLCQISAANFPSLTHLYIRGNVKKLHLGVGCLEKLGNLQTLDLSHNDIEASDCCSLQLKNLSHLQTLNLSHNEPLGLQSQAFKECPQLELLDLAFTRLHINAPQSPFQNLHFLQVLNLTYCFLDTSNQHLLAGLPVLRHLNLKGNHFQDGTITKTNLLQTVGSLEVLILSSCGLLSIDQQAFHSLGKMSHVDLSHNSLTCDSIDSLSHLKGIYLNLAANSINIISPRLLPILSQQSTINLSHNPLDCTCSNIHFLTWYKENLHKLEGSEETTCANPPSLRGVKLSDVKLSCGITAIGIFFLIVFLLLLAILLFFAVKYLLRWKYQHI
Assay: co-IP; HEK cells transiently co-transfected with APP-tagged PIM-1L and EGFP-tagged CD180; precleared lysates immunoprecipitated with anti-GFP antibody and Protein G Sepharose; blot with anti-PIM-1

Row | binding | Substance
1 | binds | APP-tagged PIM-1 short form (from UniProt P11309 1-313) (enzyme)
2 | binds | APP-tagged PIM-1L (from UniProt P11309-2 1-404) (enzyme)
